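Control-channel Italica luciferase signal in doxycycline-induced 293T-iDUX4 cells, given as percent activity after a 24-hour treatment. The test concentration is not given here. Percent change in the Italica control signal; more negative values mean stronger inhibition, which points to nonspecific, tet-on or cytotoxic effects.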

Values are in %. Common to all entries: measured here: Italica tet-on control reporter. This is a side read-out of the assay, for part of the compounds, not drawn at random.

| compound | activity change (%) |
|---|---|
| `O=C(C[C@H]1CC[C@H]2[C@@H](COC[C@H](O)CN2Cc2ccc(Oc3ccccc3)cc2)O1)Nc1nccs1` | -41.33 |
| `COc1ccccc1CNC(=O)C[C@@H]1C[C@H]2c3cc(NC(=O)c4ccc5c(c4)OCO5)ccc3O[C@H]2[C@H](CO)O1` | 3.193 |
| `O=C(C[C@H]1CC[C@H]2[C@@H](COC[C@@H](O)CN2Cc2cc(F)ccc2F)O1)NCc1ccc(Cl)cc1` | -8.603 |
| `O=C(C1CCCCC1)N1CC2(C1)[C@H](c1ccccc1)[C@H](CO)N2CC1CCCC1` | -43.54 |
| `COCC(=O)N1CC(=O)N2[C@H](CO)[C@H](c3ccc(C#CCc4ccccc4)cc3)[C@H]2C1` | -0.9868 |
| `C[C@H]1CN([C@@H](C)CO)C(=O)c2c(c3ccccc3n2C)-c2ccccc2CO[C@H]1CN(C)S(=O)(=O)c1ccc(C(F)(F)F)cc1` | -49.14 |
| `C[C@H](C(=O)N(C)C[C@@H]1OCc2ccccc2-c2ccccc2C(=O)N([C@@H](C)CO)C[C@@H]1C)c1ccccc1` | -74.63 |
| `O=C(C[C@@H]1C[C@@H]2c3cc(NS(=O)(=O)c4ccc(F)cc4)ccc3O[C@@H]2[C@@H](CO)O1)N1CCc2ccccc2C1` | -26.26 |
| `O=C(c1ccccc1F)N1CC[C@@H]2[C@@H](CO)Nc3ccc(C#Cc4ccc(F)cc4)cc3[C@@H]21` | 6.989 |
| `COc1ccccc1NC(=O)N1CCCCN2[C@H](C1)[C@@H](c1ccc(-c3ccc(C)cc3)cc1)[C@@H]2CO` | -2.464 |
| `COc1cccc(CN(C)C[C@H]2OCc3ccccc3-c3c(n(C)c4ccccc34)C(=O)N([C@@H](C)CO)C[C@@H]2C)c1` | -14.66 |
| `CCC(=O)N1CC(=O)N2[C@H](CO)[C@@H](c3ccc(-c4ccc(C#N)cc4)cc3)[C@@H]2C1` | -6.824 |
| `C[C@H](O)C#Cc1ccc([C@H]2[C@@H](CO)N3CCCCN(S(=O)(=O)c4ccccc4)C[C@@H]23)cc1` | -11.81 |
| `Cc1ccccc1-c1ccc(C2[C@@H]3CN(C(=O)Nc4ccc(F)cc4)C[C@H]2N3)cc1` (stereo partly drawn) | -8.974 |
| `CC(=O)N1CC2(C1)[C@H](c1ccc(-c3cccc(F)c3)cc1)[C@H](CO)N2CC1CCOCC1` | -10.1 |
| `Cc1ccc(S(=O)(=O)N[C@@H]2C=C[C@@H](CC(=O)NCc3ccc(Cl)c(Cl)c3)O[C@H]2CO)cc1` | -8.629 |
| `CO[C@@H]1CN(C)C(=O)c2cc(NC(=O)Nc3ccccc3F)ccc2OC[C@@H](C)N(Cc2ccccc2F)C[C@H]1C` | -11.91 |
| `CN(C)C(=O)c1ccc(-c2ccc3c(c2)[C@H]2[C@H](CCN2C(=O)c2ccccc2)[C@H](CO)N3)cc1` | -8.76 |
| `COc1ccc(-c2ccc3c(c2)[C@@H]2[C@@H](CCN2C(=O)NC2CCCCC2)[C@@H](CO)N3C)cc1` | -87.57 |
| `CO[C@H]1CN(C)C(=O)c2ccc(NC(=O)Nc3cccc(Cl)c3)cc2OC[C@H](C)NC[C@H]1C` | -21.12 |
| `C/C=C/c1ccc([C@@H]2[C@H](CO)N3CCCCN(S(=O)(=O)c4ccc(F)cc4)C[C@@H]23)cc1` | 1.483 |
| `O=S(=O)(c1cccs1)N1CCCCN2[C@H](C1)[C@H](c1ccc(-c3ccccc3)cc1)[C@@H]2CO` | -19.16 |
| `O=C(C[C@@H]1CC[C@H]2[C@@H](COC[C@@H](O)CN2CC2CCCCC2)O1)NCc1ccc(F)cc1` | -10.94 |
| `COc1ccc2c3c(n(C)c2c1)[C@@H](CO)N(Cc1nccs1)CC31CCN(C(=O)CC2CC2)CC1` | -5.831 |
| `COc1ccc2c3c([nH]c2c1)[C@H](CO)N(C(=O)Nc1ccc(F)cc1)CC31CCN(S(C)(=O)=O)CC1` | -12.39 |
| `COc1ccccc1-c1cccc(-c2nc(C(=O)N3CCCCC3)cc3c2[C@H](CCO)N([S@@](=O)C(C)(C)C)C3)c1` | -24.37 |
| `CCC(=O)N(C)C[C@@H]1Oc2cc(C#Cc3ccncc3)ccc2S(=O)(=O)N([C@H](C)CO)C[C@H]1C` | -32.16 |
| `O=C(C[C@@H]1CC[C@H]2[C@@H](COC[C@@H](O)CN2Cc2cccc(-c3ccncc3)c2)O1)N1CCN(c2ccccc2)CC1` | -7.641 |
| `N#Cc1ccc(-c2ccc3c(c2)[C@H]2[C@H](CCN2S(=O)(=O)c2cccc(F)c2)[C@@H](CO)N3)cc1` | -41.91 |
| `COc1ccc(CN2C[C@H](O)COC[C@H]3O[C@H](CC(=O)N4CCc5ccccc5C4)CC[C@@H]32)cc1` | -18.97 |
| `O=C(C[C@@H]1CC[C@@H]2[C@H](COC[C@H](O)CN2C(=O)c2ccccc2)O1)Nc1ccc(-c2ccccc2)cc1` | -22.37 |
| `O=C(C[C@H]1C[C@H]2c3cc(NC(=O)c4ccc5c(c4)OCO5)ccc3O[C@H]2[C@H](CO)O1)NCc1cc(F)ccc1F` | -15.24 |
| `N#Cc1cccc(-c2ccc3c(c2)[C@@H]2[C@@H](CCN2S(=O)(=O)c2ccccc2)[C@H](CO)N3)c1` | -34.07 |
| `O=C(c1ccccc1F)N1CC(=O)N2[C@H](C1)[C@@H](c1ccc(-c3ccc(F)cc3)cc1)[C@@H]2CO` | -18.71 |
| `CCCNC(=O)N1C[C@@H]2N[C@H](C1)C2c1ccc(-c2ccc(F)cc2)cc1` (stereo partly drawn) | -41.14 |
| `O=S(=O)(c1ccc(F)cc1)N1CC[C@H]2[C@H](CO)Nc3ccc(-c4ccc(F)cc4)cc3[C@H]21` | -10.93 |
| `C/C=C/c1ccc([C@@H]2[C@@H](CO)N3CCCCN(S(=O)(=O)c4cccc(C)c4)C[C@@H]23)cc1` | -3.254 |
| `C/C=C/c1ccccc1[C@H]1[C@@H](CO)N(C(=O)Nc2ccc(OC)cc2)[C@H]1C#N` | -16.45 |
| `Cc1ccccc1-c1ccc([C@@H]2[C@H](CO)N3CCCCN(C(=O)NC4CCCC4)C[C@@H]23)cc1` | -6.495 |
| `COc1cccc(S(=O)(=O)N2C[C@@H]3N[C@H](C2)C3c2ccc(-c3ccccc3C)cc2)c1` (stereo partly drawn) | -1.699 |
| `COc1cccc(C#Cc2ccc([C@@H]3[C@H]4CN(C(=O)c5ccccc5)CC(=O)N4[C@H]3CO)cc2)c1` | -30.24 |
| `Cc1ccc(S(=O)(=O)N2C[C@@H]3N[C@H](C2)C3c2ccc(-c3cccc(C#N)c3)cc2)cc1` (stereo partly drawn) | -62.6 |
| `O=C(C1CCCCC1)N1CC2(C1)[C@H](c1ccccc1)[C@@H](CO)N2CCC(F)(F)F` | -14.28 |
| `COc1ccccc1NC(=O)N1CCCCN2[C@H](CO)[C@H](c3ccc(-c4cccc(F)c4)cc3)[C@H]2C1` | -40.9 |
| `Cc1ccc(-c2ccc(C3[C@@H]4CN(C(=O)Nc5ccc(C(F)(F)F)cc5)C[C@H]3N4)cc2)cc1` (stereo partly drawn) | -96.82 |
| `CCc1cnc(N2[C@H](CO)[C@H](c3ccccc3-c3ccccc3C)[C@@H]2C#N)s1` | -2.747 |
| `Fc1cccc(-c2ccc(C3[C@@H]4CN(Cc5cccnc5)C[C@H]3N4)cc2)c1` (stereo partly drawn) | 1.459 |
| `C[C@H]1CN([C@@H](C)CO)C(=O)c2ccccc2-c2ccccc2CO[C@@H]1CN(C)C(=O)Nc1cccc(C(F)(F)F)c1` | -1.527 |
| `O=C(C[C@@H]1CC[C@@H]2[C@H](COC[C@H](O)CN2Cc2ccc(Oc3ccccc3)cc2)O1)N1CCOCC1` | -34.51 |
| `N#Cc1cccc(-c2ccc3c(c2)[C@H]2[C@H](CCN2Cc2ccc4c(c2)OCO4)[C@H](CO)N3)c1` | -20.56 |
| `COc1cccc(-c2ccc([C@H]3[C@@H](CO)N4CCCCN(CC5CC5)C[C@H]34)cc2)c1` | -2.791 |
| `O=C(c1cccc(F)c1)N1CC(=O)N2[C@H](C1)[C@H](c1ccc(C#Cc3ccc(F)cc3)cc1)[C@@H]2CO` | -9.525 |
| `CN1[C@@H]2Cn3c(ccc(-c4ccccc4)c3=O)[C@H]1[C@@H](C(=O)N1CCC(Cc3ccccc3)CC1)[C@@H]2CO` | -16.19 |
| `O=C(Nc1ccc(F)cc1)N1CC(=O)N2[C@H](CO)[C@@H](c3ccc(C#Cc4cccnc4)cc3)[C@@H]2C1` | -16.31 |
| `CCCC#Cc1ccc([C@@H]2[C@H](CO)N3C(=O)CN(C(=O)Nc4cc(F)ccc4F)C[C@@H]23)cc1` | -36.47 |
| `C[C@H]1CN([C@@H](C)CO)C(=O)c2c(c3ccccc3n2C)-c2ccccc2CO[C@H]1CN(C)Cc1ccc(Cl)c(Cl)c1` | -81.28 |
| `O=C(C[C@@H]1C[C@@H]2c3cc(NC(=O)Nc4ccccc4F)ccc3O[C@@H]2[C@@H](CO)O1)NCc1ccc(Oc2ccccc2)cc1` | -7.574 |
| `C[C@@H]1CN([C@H](C)CO)C(=O)c2c(c3ccccc3n2C)-c2ccccc2CO[C@H]1CN(C)Cc1ccc(-c2ccccc2)cc1` | -12.7 |
| `O=C(Nc1ccccc1)N1CCCCN2[C@@H](CO)[C@H](c3ccc(C4=CCCCC4)cc3)[C@@H]2C1` | -33.07 |
| `O=C(C[C@H]1CC[C@H]2[C@@H](COC[C@H](O)CN2C(=O)Nc2ccc(Cl)c(Cl)c2)O1)NCc1ccc(Cl)c(Cl)c1` | -6.07 |
| `C/C=C/c1ccc([C@@H]2[C@H]3CN(C(=O)Nc4cc(F)ccc4F)CCCCN3[C@H]2CO)cc1` | 0.05633 |
| `CC(C)CC#Cc1ccc([C@@H]2[C@@H](CO)N3CCCCN(S(=O)(=O)c4ccc(F)cc4)C[C@H]23)cc1` | -97.48 |
| `O=C(c1ccc(F)cc1)N1CC[C@@H]2[C@@H](CO)Nc3ccc(C#Cc4ccccc4F)cc3[C@@H]21` | -26.93 |
| `CC(=O)N1CCCCN2[C@H](C1)[C@@H](c1ccc(C#Cc3ccccc3F)cc1)[C@@H]2CO` | -13.57 |
| `CN(C)C(=O)c1ccc(-c2ccc3c(c2)[C@H]2[C@H](CCN2C(=O)C2CCCC2)[C@@H](CO)N3C)cc1` | -66.67 |
| `COc1ccc2c3c([nH]c2c1)[C@H](CO)N(Cc1ccncc1)CC31CN(Cc2ccc(-c3ccccn3)cc2)C1` | -22.12 |

Some entries from above, unchanged:

C/C=C/c1ccc([C@@H]2[C@H]3CN(C(=O)Nc4cc(F)ccc4F)CCCCN3[C@H]2CO)cc1 read activity change 0.05633%.
O=C(c1ccccc1F)N1CC(=O)N2[C@H](C1)[C@@H](c1ccc(-c3ccc(F)cc3)cc1)[C@@H]2CO read activity change -18.71%.
Cc1ccccc1-c1ccc([C@@H]2[C@H](CO)N3CCCCN(C(=O)NC4CCCC4)C[C@@H]23)cc1 read activity change -6.495%.
O=C(C[C@@H]1CC[C@H]2[C@@H](COC[C@@H](O)CN2CC2CCCCC2)O1)NCc1ccc(F)cc1 read activity change -10.94%.
O=C(C[C@@H]1C[C@@H]2c3cc(NS(=O)(=O)c4ccc(F)cc4)ccc3O[C@@H]2[C@@H](CO)O1)N1CCc2ccccc2C1 read activity change -26.26%.
O=C(C[C@@H]1CC[C@@H]2[C@H](COC[C@H](O)CN2Cc2ccc(Oc3ccccc3)cc2)O1)N1CCOCC1 read activity change -34.51%.
O=C(c1cccc(F)c1)N1CC(=O)N2[C@H](C1)[C@H](c1ccc(C#Cc3ccc(F)cc3)cc1)[C@@H]2CO read activity change -9.525%.

Source: PubChem BioAssay AID1224904 (Broad Institute, 2016).